Earlier results as cited in patent publication US20200172549A1, “NOVEL CHLORIN E6-CURCUMIN DERIVATIVES, PREPARATION METHOD THEREOF, AND PHARMACEUTICAL COMPOSITION CONTAINING THE SAME FOR TREATMENT OF CANCER” (DONG SUNG PHARM. CO., LTD., priority 2017, published 2020).

Details: cited from earlier work

SMILES: COc1cc(/C=C/C(=O)CC(=O)/C=C/c2ccc(O)c(OC)c2)ccc1O [curcumin]
- Solubility in ethanol and DMSO (ethanol and DMSO): highly soluble
- Solubility in water (water): insoluble
